For experiment [1], the target named is colicin E7 immunity protein ImmE7(Ct-His6) (E. coli) (UniProt Q03708). The experiment in a line: co-purification by affinity chromatography; colicin co-expressed with its immunity protein carrying a C-terminal His6 tag in BL21(DE3); complex purified by affinity chromatography through the tag (Ni-NTA).
Experiment [2] concerns the target T1, colicin E2 immunity protein (ImmE2) carrying a C-terminal His6 tag (E. coli) (UniProt P04482).
T1 sequence: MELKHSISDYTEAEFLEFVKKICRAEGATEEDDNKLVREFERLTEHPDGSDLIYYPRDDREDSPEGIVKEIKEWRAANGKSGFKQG
The experiment is described as above.

The chains behind the UniProt entries cited, without tags or fusion partners. Where a name states a change or a piece, a line headed by the entry shows the natural chain unless it says otherwise.
UniProt Q03708: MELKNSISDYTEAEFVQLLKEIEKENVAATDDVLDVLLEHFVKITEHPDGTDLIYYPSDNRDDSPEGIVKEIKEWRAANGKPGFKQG
UniProt Q47112: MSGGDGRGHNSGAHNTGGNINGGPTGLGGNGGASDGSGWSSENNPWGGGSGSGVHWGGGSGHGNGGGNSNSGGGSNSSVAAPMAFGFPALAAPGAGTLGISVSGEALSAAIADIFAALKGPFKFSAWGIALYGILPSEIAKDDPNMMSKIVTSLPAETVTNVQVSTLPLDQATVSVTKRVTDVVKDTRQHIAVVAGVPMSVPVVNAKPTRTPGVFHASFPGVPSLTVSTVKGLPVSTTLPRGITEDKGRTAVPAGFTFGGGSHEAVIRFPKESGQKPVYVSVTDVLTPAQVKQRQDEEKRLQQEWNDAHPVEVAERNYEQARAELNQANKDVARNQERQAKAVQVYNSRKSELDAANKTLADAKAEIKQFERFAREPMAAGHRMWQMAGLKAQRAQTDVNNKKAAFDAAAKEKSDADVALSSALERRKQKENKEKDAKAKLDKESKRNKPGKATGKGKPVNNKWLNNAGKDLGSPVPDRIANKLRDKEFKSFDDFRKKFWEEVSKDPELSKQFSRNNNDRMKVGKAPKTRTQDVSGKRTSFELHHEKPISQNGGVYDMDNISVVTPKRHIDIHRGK
UniProt P04419: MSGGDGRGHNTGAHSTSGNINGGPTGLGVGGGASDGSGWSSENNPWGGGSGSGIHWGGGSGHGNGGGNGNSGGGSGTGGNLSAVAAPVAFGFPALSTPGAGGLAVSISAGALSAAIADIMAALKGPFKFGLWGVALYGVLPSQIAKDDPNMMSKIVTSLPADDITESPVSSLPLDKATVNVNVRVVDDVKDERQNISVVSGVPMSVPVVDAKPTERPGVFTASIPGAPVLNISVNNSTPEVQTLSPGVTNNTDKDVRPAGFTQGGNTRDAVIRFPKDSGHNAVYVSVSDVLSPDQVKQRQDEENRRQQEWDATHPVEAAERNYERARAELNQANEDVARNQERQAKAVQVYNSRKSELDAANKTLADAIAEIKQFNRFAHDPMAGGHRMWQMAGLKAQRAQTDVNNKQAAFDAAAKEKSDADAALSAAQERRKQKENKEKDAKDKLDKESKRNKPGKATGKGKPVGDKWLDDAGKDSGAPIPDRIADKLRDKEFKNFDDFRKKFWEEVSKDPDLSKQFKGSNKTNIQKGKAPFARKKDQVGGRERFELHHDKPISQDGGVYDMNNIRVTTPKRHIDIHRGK
UniProt P00646: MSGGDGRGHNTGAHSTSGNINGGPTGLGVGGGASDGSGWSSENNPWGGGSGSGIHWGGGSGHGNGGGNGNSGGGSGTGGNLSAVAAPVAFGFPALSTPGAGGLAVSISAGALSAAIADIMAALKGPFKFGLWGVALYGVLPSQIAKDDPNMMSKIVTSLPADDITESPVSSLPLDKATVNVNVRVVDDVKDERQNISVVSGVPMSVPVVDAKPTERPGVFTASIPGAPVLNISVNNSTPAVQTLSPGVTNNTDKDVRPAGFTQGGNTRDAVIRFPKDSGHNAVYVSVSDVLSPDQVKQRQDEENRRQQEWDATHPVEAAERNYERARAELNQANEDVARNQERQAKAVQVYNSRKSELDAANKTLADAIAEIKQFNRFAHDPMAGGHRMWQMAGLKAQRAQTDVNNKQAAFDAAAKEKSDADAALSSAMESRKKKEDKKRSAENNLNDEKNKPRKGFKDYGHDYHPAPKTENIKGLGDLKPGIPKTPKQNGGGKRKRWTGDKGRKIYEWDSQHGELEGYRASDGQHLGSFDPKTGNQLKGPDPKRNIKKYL

For experiment [3], the target named is T2, outer-membrane receptor BtuB (E. coli (endogenous in E. coli K12 strains)) (UniProt P06129).
T2 sequence: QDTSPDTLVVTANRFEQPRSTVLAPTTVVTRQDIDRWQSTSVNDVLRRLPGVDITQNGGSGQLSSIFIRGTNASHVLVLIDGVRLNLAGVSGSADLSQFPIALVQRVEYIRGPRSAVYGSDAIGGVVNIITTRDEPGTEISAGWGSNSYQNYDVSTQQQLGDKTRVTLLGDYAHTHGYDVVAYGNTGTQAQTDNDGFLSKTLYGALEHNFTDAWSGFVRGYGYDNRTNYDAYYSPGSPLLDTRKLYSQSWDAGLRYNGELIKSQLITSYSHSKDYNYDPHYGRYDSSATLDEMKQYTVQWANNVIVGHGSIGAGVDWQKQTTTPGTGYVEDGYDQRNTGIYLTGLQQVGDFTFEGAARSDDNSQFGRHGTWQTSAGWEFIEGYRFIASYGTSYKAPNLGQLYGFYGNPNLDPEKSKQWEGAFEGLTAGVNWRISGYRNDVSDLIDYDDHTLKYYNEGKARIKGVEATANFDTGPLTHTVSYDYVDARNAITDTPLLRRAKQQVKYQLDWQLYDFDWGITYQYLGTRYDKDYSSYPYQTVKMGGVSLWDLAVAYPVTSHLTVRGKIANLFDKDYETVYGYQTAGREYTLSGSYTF
Kind of experiment: association with cells (proteinase K protection, membrane fractionation, Western blot); 1 mg colicin E-ImmE complex added to 50 ml E. coli culture (OD600 0.4, 37°C, 45 min); cells washed, treated with proteinase K (100 µg/ml, 1 h, 37°C; also 0 or 5 min, or 3- and 9-fold more PK); crude extracts or membrane fractions blotted with anti-colicin antiserum; wild-type and btuB-, tolA-, tolB-, ompFC-, ftsH-, ompT-deficient strains; only the binder purified. A general note: A western blot detects proteins with antibodies after separation by electrophoresis.

Results are given in words; binding and its absence hold for the method and conditions named. Some results given as binding are weak or reduced against the parent protein; the word gives no strength. For some of these results: Tags and fused reporters may be left off the sequences shown.

For the substance colicin E7 (from UniProt Q47112 1-576), the binding result in experiment [1] is reported as “binds”.

Turning to colicin E2 (from UniProt P04419 1-581), the binding result in experiment [2] is recorded as “binds”.

For the substance “colicin E2-ImmE2 complex (from UniProt P04419 1-581; P04482 1-86)”, in experiment [3], the binding entry was “binds”.

As to “hybrid colicin E3/colicin E2 (from UniProt P00646 1-454; P04419 457-581)”, in experiment [2], the binding result was “binds”.

For the origin of these results see paper PMC4026351.
